Some of these results come from one statement about several compounds together.
Biological target: T1, human Cav2.2 α (α1B) subunit, along with the human β3 and α2δ1 auxiliary subunits (Homo sapiens, UniProt Q00975)
T1 construct: expressed in transfected cells
Test: hCav2.2 assay, IonWorks planar array electrophysiology in stable HEK293 cell line
Assay type: cell-based
Settings: for use-dependent pUD30: concentration producing 30% use-dependent inhibition, 10th versus 1st depolarising pulse, 10 Hz, -90 mV to +10 mV, HEK293 cells

Chains of the proteins cited; added tags and fusions are not shown. Lines headed by an entry give the natural chain unless they say otherwise; changes in a name come on top.
UniProt Q00975, whole entry: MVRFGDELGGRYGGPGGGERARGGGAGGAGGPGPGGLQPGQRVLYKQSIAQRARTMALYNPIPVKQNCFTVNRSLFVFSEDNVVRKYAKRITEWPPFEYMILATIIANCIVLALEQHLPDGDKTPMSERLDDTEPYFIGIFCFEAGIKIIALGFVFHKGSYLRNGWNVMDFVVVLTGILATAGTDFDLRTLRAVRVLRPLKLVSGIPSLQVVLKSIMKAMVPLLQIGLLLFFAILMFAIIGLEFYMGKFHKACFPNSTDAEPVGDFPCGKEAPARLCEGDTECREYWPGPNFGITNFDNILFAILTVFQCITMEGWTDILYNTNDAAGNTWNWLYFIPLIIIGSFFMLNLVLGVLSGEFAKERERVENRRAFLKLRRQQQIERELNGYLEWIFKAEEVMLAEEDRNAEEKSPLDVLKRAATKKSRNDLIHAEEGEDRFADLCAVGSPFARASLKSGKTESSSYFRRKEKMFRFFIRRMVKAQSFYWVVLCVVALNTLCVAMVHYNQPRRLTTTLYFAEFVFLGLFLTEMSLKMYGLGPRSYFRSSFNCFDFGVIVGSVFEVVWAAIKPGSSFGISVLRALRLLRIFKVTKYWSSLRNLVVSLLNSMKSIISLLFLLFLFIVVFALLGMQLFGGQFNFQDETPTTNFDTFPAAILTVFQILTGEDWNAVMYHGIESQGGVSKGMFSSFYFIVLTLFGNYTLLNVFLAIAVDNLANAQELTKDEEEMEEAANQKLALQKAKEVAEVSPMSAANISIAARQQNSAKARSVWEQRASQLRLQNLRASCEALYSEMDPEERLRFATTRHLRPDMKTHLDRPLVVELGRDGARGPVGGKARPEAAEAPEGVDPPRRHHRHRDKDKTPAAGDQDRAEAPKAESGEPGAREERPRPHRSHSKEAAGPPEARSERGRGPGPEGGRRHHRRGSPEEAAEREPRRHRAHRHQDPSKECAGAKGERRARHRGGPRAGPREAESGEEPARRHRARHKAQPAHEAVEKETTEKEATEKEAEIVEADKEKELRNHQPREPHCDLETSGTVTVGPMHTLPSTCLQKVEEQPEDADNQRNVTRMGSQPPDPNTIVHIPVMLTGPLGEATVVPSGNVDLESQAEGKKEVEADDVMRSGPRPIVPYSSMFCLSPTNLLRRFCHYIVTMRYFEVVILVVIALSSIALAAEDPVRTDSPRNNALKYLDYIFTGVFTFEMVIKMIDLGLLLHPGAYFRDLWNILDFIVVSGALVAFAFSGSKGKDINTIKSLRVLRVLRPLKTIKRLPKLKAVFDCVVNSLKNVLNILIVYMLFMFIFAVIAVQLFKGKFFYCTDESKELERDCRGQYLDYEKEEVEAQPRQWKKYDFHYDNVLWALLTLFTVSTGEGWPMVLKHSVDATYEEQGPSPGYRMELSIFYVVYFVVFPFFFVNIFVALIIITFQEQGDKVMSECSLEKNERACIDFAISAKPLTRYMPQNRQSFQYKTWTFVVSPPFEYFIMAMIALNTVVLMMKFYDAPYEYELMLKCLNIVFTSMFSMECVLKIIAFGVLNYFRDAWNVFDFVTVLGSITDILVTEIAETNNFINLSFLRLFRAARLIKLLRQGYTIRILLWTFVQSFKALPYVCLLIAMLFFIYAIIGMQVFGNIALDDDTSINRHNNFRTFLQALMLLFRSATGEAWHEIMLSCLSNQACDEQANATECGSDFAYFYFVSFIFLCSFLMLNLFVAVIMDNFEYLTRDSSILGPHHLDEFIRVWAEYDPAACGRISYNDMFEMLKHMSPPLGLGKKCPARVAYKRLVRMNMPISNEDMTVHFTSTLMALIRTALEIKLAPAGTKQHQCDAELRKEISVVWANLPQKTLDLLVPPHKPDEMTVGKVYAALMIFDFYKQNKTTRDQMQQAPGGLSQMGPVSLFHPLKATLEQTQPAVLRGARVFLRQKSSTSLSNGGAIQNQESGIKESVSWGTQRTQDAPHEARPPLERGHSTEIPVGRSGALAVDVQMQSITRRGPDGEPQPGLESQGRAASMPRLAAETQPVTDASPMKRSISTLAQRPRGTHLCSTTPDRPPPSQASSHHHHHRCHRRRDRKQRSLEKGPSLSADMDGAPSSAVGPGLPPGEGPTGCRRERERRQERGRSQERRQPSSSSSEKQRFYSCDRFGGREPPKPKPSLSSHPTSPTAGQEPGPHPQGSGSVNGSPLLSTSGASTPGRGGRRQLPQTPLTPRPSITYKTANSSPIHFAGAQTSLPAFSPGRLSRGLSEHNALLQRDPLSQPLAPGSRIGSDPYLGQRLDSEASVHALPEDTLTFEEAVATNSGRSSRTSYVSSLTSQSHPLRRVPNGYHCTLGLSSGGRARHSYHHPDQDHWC

Structure (SMILES)	activity in the hCav2.2 assay	use-dependent pUD30
CC1C(=O)N(C)CCN1Cc1nnnn1-c1cccc(C(F)(F)F)c1 (centres unmarked) [Compound 33, 1,3-Dimethyl-4-({1-[3-(trifluoromethyl)phenyl]-1H-tetrazol-5-yl}methyl)-2-piperazinone]	showed activity	≥ 5.0
FC(F)(F)c1cccc(-n2nnnc2CN2CCC2)c1 [Compound 75, 5-(1-Azetidinylmethyl)-1-[3-(trifluoromethyl)phenyl]-1H-tetrazole]	showed activity	≥ 4.5
FC(F)(F)c1ccc(-n2nnnc2CN2CCCC2)cc1 [Compound 7, 5-(1-Pyrrolidinylmethyl)-1-[4-(trifluoromethyl)phenyl]-1H-tetrazole]	showed activity	
